Results are given in words; binding and its absence hold for the method and conditions named. Some results given as binding are weak or reduced against the parent protein; the word gives no strength.
Columns and labels:
[1] = target: human MMP-12 (human) (UniProt P39900); test: MMP-12 activity against antibody concentration, FIGS. 2A-2C
[2] = target: murine MMP-12 (mouse) (UniProt P34960); test: as above
[3] = target: human MMP-12 (human) (UniProt P39900); test: ELISA competition binding assay, FIG. 5
[4] = target: murine MMP-12 (mouse) (UniProt P34960); test: ELISA competition binding assay, FIG. 5
[5] = target: human MMP-12 (human) (UniProt P39900); test: inhibition assays and affinity ranking of affinity matured clones
[6] = target: murine MMP-12 (mouse) (UniProt P34960); test: as above
[7] = target: human MMP-12 (human) (UniProt P39900); test: human MMP-12 activity against antibody concentration, FIG. 9

Amino acid sequences for entries named in this document (tags omitted). A change or cut given only in a name is not applied to a line headed by its entry.
UniProt P39900: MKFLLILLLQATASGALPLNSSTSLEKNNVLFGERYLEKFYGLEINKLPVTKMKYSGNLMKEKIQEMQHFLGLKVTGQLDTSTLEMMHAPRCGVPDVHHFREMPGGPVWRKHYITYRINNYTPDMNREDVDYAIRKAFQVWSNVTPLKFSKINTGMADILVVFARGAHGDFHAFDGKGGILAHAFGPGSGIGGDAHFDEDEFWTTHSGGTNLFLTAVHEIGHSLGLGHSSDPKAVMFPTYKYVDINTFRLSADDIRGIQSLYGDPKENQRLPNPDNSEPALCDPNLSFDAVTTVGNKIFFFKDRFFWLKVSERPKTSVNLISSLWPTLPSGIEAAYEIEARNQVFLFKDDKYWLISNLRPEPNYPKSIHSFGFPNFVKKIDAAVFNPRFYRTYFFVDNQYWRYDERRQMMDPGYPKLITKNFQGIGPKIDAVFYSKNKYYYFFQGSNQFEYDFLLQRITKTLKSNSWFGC
UniProt P34960: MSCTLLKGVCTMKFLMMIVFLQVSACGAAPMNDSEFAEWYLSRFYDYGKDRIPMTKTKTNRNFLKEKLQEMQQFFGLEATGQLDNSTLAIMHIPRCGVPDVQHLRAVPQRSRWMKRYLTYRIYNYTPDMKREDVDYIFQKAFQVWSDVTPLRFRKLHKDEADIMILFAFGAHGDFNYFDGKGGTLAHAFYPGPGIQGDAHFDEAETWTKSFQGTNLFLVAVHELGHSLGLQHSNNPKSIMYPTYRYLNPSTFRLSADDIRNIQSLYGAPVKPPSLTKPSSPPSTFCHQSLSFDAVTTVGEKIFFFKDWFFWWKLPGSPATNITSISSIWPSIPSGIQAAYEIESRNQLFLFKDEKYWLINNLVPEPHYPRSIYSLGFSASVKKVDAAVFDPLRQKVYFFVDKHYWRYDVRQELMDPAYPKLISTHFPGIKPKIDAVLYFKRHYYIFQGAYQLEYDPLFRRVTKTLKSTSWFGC

Binder	binding [3]	binding [4]	also measured
539B-M0008-H09 (format not stated) (antibody, V domains shown) VH: EVQLLESGGGLVQPGGSLRLSCAASGFTFSDYNMHWVRQAPGKGLEWVSYIGPSGGYTHYADSVKGRFTISRDNSKNTLYLQMNSLRAEDTAVYYCAKDIRGAYSSGLFDYWGRGTLVTVSS VL: DIQMTQSPSSLSASVGDRVTITCRANQSIYTYLNWYQQKPGKAPELLIYAASSLQSGVPSRFSGSGSGTDFTLTISSLQPEDFATYYCQQAGIFGQGTKLEIK	binds	binds	binding [1]: binds; binding [2]: binds
539A-M0013-G12 IgG (antibody, V domains shown) VH: EVQLLESGGGLVQPGGSLRLSCAASGFTFSWYHMFWVRQAPGKGLEWVSGISSSGGYTHYADSVKGRFTISRDNSKNTLYLQMNSLRAEDTAVYYCATREGMLYDYVWGENYMDVWGKGTTVTVSS VL: DIQMTQSPSSLSASVGDRVTITCQASQDTYNRLHWYQQKPGKAPKLLIYDAVNLNRGVPSRFRGSGSGTNYILIITNLQPEDTATYYCQHSDDLSLAFGGGTKVEIK	binds		
539A-M0016-A11 IgG (antibody, V domains shown) VH: EVQLLESGGGLVQPGGSLRLSCAASGFTFSEYQMAWVRQAPGKGLEWVSSIYPSGGHTHYADSVKGRFTISRDNSKNTLYLQMNSLRAEDTAVYYCAKESYYDFWSGYYFDYWGQGTLVTVSS VL: DIQMTQSPSSLSASVRDRVTITCRTSQNINTYLNWYYQAPGRAPKLLIFGVSSLHRGVSSRFSGSGDGTEFTLTISSLQPEDIGTYFCQQSYSSPWTFGQGTKVEIK	binds		
539B-M0011-H11 Fab (Fab, V domains shown) VH: EVQLLESGGGLVQPGGSLRLSCAASGFTFSWYNMWWVRQAPGKGLEWVSYIYPSGGNTGYADSVKGRFTISRDNSKNTLYLQMNSLRAEDTAVYYCAVFEYSSSGPQGYWGQGTLVTVSS VL: QSALTQPPSVSVAPGQTARITCGGNNIGTKSVHWYQQKSGQAPVLVVYDNSDRPSGIPERFSGSNSGNTATLTISRVEAGDEADYYCQVWDNSIDHVVFGGGTKLTVL		binds	
539B-M131A06 (antibody, V domains shown) VH: EVQLLESGGGLVQPGGSLRLSCAASGFTFSWYWMHWVRQAPGKGLEWVSGISPSGGMTMYADSVKGRFTISRDNSKNTLYLQMNSLRAEDTAVYYCARDIVGPYSAGLFDYWGRGTLVTVSS VL: DIQMTQSPSSLSASVGDRVTITCRANQSIYTYLNWYQQKPGKAPELLIYAASSLQSGVPSRFSGSGSGTDFTLTISSLQPEDFATYYCQQAGIFGQGTKLEIK			binding [5]: binds; binding [6]: binds
539B-M131A06-GA-S (antibody, V domains shown) VH: EVQLLESGGGLVQPGGSLRLSCAASGFTFSWYWMHWVRQAPGKGLEWVSGISPSGGMTMYADSVKGRFTISRDNSKNTLYLQMNSLRAEDTAVYYCARDIVGPYSAGLFDYWGRGTLVTVSS VL: DIQMTQSPSSLSASVGDRVTITCRASQSIYTYLNWYQQKPGKAPKLLIYAASSLQSGVPSRFSGSGSGTDFTLTISSLQPEDFATYYCQQAGIFGQGTKLEIKR			binding [7]: binds

From patent US8114968
